The source of these data is patent US20230024442A1, “BIFUNCTIONAL COMPOUNDS FOR GRADING BTK VIA UBIQUITIN PROTEOSOME PATHWAY” (NURIX THERAPEUTICS, INC., priority 2019, published 2023).

By UniProt entry, the sequences of proteins in these tests, tags left out.
UniProt Q06187, whole entry: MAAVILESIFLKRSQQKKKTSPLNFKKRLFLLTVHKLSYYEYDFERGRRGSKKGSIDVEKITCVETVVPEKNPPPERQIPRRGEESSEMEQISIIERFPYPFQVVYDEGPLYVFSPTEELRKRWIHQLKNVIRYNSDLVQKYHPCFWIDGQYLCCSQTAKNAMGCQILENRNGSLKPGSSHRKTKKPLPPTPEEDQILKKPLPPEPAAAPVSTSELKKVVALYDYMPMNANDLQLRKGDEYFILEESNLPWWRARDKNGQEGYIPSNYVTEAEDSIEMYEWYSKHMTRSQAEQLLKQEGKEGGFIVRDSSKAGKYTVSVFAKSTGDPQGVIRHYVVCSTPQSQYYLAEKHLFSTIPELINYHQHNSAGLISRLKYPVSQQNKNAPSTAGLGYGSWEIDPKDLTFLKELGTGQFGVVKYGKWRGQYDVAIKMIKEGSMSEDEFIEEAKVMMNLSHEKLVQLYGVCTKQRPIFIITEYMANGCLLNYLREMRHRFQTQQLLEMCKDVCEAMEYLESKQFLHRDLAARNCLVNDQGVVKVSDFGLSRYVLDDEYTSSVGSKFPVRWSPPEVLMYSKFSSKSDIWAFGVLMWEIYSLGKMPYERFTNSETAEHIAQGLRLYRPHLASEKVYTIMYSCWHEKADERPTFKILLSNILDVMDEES

In this test the target is BTK (Homo sapiens, UniProt Q06187). Kind of test: Cellular BTK HTRF Assay (BTK levels in Ramos cells). Conditions: read-out: Cellular BTK HTRF Ramos: DC50; Ramos cells, 50,000 cells, incubated four hours at 37° C.; BTK levels by Cisbio Total-BTK HTRF relative to DMSO-treated cells. The protocol:
Ramos (CRL-1596) cells were obtained from American Type Culture Collection and were grown in RPMI-1640 media (ATCC, 30-2001) supplemented with 10% heat-inactivated FBS (Corning Premium Fetal Bovine Serum from Fisher, MT35015CV).
Compounds of the present invention were added to 50,000 Ramos cells in round-bottom 96 well plates with a final DMSO concentration of […] and were incubated at 37° C. 5% CO2 for four hours. BTK levels were determined using Cisbio Total-BTK HTRF ([…] Time-Resolved Fluorescence) kit (63ADK064PEG) according to manufacturer's protocol. Briefly, cells were incubated in 1× supplied lysis buffer for 30 minutes. In an opaque white low volume 96 well plate (Cisbio, 66PL96005), cell lysate was combined with two different specific BTK antibodies, one conjugated with Eu^3+-Cryptate FRET donor and one conjugated with d2 FRET acceptor. Assay controls include wells containing cell lysate with only the Eu^3+-Cryptate FRET donor antibody and wells containing both HTRF antibodies and lysis buffer without cells or control lysate provided by Cisbio. HTRF ratio was calculated as (acceptor signal at 665 nm/donor signal at 620 nm)×10^4. Background HTRF levels were determined from the control well containing the donor, but no acceptor, antibody. […] Readouts were reported as HTRF levels relative to HTRF levels of DMSO-treated cells. […]
(TR-FRET usually uses a lanthanide donor and a delayed reading to cut background.)

Structures were worked out from names or drawings and are uncertain.

Turning to `CN[C@@H](C)C(=O)N[C@H](C(=O)N1CCC[C@H]1c1nc(C(=O)c2cccc(OCCOCCOCCOCCOCCC(=O)N3CCn4nc(Nc5cc(-c6ccnc(-n7ncc8cc(C(C)(C)C)cc(F)c8c7=O)c6CO)cn(C)c5=O)cc4C3)c2)cs1)C1CCCCC1`, the DC50 was 10 to 1000 nM.
